Reference: PubChem BioAssay AID686938 (Drosophila RNAi Screening Center, 2013)

- Assay: 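Knock-downs reducing store-operated calcium influx in Drosophila cells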 (primary screen)
- System: Drosophila S2R+ cells
- Reagent: long dsRNA against Drosophila genes, about 0.25 µg dsRNA per well, roughly 10,000 cells
- Duration: 5 days of knock-down before the calcium assay
- Conditions: thapsigargin (SERCA pump blocker) to empty calcium stores; entry signal taken 4 min after adding it
- Read-out: 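Per-well fluo-4 fluorescence in two replicates, unnormalised, measured in resting cells and 4 min after store depletion by the SERCA blocker thapsigargin; ratio of the two present in few wells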
- Direction: calcium entry signal: higher = stronger calcium signal after store depletion; resting calcium signal: higher = higher resting calcium signal
- Units: calcium entry signal in fluorescence units; resting calcium signal in fluorescence units
- Active means: 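Hit if the duplicate-averaged plate z-score for entry over resting signal is under −3; wells with weak total dye signal (Fmax z < −2) or more than 5 off-targets removed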
- Calls: active = strongly reduced calcium entry; inactive = no strong reduction
The screen tested about 23,000 reagents; below is a random part of those with a known target gene and a result. In the full data, 75 (0.33%) are marked active. 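Raw plate signals without normalisation; calls rest on plate z-scores that were not deposited; ratio present for only 364 wells.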 The numbers tell different reagents against one gene apart. A plus sign joins genes that one reagent is predicted to hit. Not given: the dose of the treatment.

With alien, what does the deposit list?
calcium entry signal, replicate 1: 3.01e7; resting calcium signal, replicate 1: 1.62e7; Outcome: inactive

Which result is listed for CG4456 + Hsp22 #1?
calcium entry signal, replicate 1: 2.45e7; calcium entry signal, replicate 2: 3.41e7; resting calcium signal, replicate 1: 1.37e7; resting calcium signal, replicate 2: 1.48e7; Outcome: inactive

For CG4456 + Hsp22 #2, how do the results read?
calcium entry signal, replicate 1: 5.33e7; calcium entry signal, replicate 2: 4.72e7; resting calcium signal, replicate 1: 3.38e7; resting calcium signal, replicate 2: 1.94e7; Outcome: inactive

With cGlr1, what was measured?
calcium entry signal, replicate 1: 3.16e7; calcium entry signal, replicate 2: 3.74e7; resting calcium signal, replicate 1: 1.43e7; resting calcium signal, replicate 2: 1.72e7; Outcome: inactive

What is on record for Mapmodulin?
calcium entry signal, replicate 1: 3.31e7; calcium entry signal, replicate 2: 2.78e7; resting calcium signal, replicate 1: 1.48e7; resting calcium signal, replicate 2: 1.42e7; Outcome: inactive

Entries listed so far whose target name begins with C or c:
CG4456 + Hsp22 #1 | calcium entry signal, replicate 1 = 2.45e7; calcium entry signal, replicate 2 = 3.41e7; resting calcium signal, replicate 1 = 1.37e7; resting calcium signal, replicate 2 = 1.48e7; Outcome = inactive
CG4456 + Hsp22 #2 | calcium entry signal, replicate 1 = 5.33e7; calcium entry signal, replicate 2 = 4.72e7; resting calcium signal, replicate 1 = 3.38e7; resting calcium signal, replicate 2 = 1.94e7; Outcome = inactive
cGlr1 | calcium entry signal, replicate 1 = 3.16e7; calcium entry signal, replicate 2 = 3.74e7; resting calcium signal, replicate 1 = 1.43e7; resting calcium signal, replicate 2 = 1.72e7; Outcome = inactive

The listing continues.
What is on record for CG9663?
calcium entry signal, replicate 1: 4.61e7; resting calcium signal, replicate 1: 2.62e7; Outcome: inactive

What did the screen give for CG30458?
calcium entry signal, replicate 1: 5.01e7; calcium entry signal, replicate 2: 2.99e7; resting calcium signal, replicate 1: 2.15e7; resting calcium signal, replicate 2: 1.57e7; Outcome: inactive

How did the screen score CG8584?
calcium entry signal, replicate 1: 4.18e7; calcium entry signal, replicate 2: 4.56e7; resting calcium signal, replicate 1: 1.98e7; resting calcium signal, replicate 2: 1.91e7; Outcome: inactive

What is on record for CG11700?
calcium entry signal, replicate 1: 1.72e7; calcium entry signal, replicate 2: 9.32e6; resting calcium signal, replicate 1: 1.57e7; resting calcium signal, replicate 2: 8.79e6; Outcome: inactive

For Sbds, what was measured?
calcium entry signal, replicate 1: 3.91e7; calcium entry signal, replicate 2: 2.97e7; resting calcium signal, replicate 1: 2.61e7; resting calcium signal, replicate 2: 1.23e7; Outcome: inactive

With Myo28B1, how do the results read?
calcium entry signal, replicate 1: 3.21e7; calcium entry signal, replicate 2: 3.32e7; resting calcium signal, replicate 1: 1.79e7; resting calcium signal, replicate 2: 1.63e7; Outcome: inactive

With CG12963 #1, what was measured?
calcium entry signal, replicate 1: 5.20e7; calcium entry signal, replicate 2: 6.07e7; resting calcium signal, replicate 1: 2.88e7; resting calcium signal, replicate 2: 2.71e7; Outcome: inactive

What did the screen give for CG12963 #2?
calcium entry signal, replicate 1: 4.25e7; calcium entry signal, replicate 2: 3.54e7; resting calcium signal, replicate 1: 2.16e7; resting calcium signal, replicate 2: 1.61e7; Outcome: inactive

With Orc4, what was measured?
calcium entry signal, replicate 1: 4.08e7; resting calcium signal, replicate 1: 2.25e7; Outcome: inactive
